The values that follow are results of earlier work, collected in article PMC5756113 (Peptides, 2017).

For this data set the following is noted: cited from earlier work.

For `CN1CC[C@]23c4c5ccc(O)c4O[C@H]2[C@@H](O)C=C[C@H]3[C@H]1C5` [morphine], the Brain uptake result is “less than 0.02 %Inj/g”.
